# Experimental data reported in the kinase profiling compilation of Christmann-Franck et al. (2016).
# By UniProt entry, the sequences of proteins in these tests, tags left out. Where a name states a change or a piece, a line headed by the entry shows the natural chain unless it says otherwise.
# UniProt P11309, whole entry, looked up: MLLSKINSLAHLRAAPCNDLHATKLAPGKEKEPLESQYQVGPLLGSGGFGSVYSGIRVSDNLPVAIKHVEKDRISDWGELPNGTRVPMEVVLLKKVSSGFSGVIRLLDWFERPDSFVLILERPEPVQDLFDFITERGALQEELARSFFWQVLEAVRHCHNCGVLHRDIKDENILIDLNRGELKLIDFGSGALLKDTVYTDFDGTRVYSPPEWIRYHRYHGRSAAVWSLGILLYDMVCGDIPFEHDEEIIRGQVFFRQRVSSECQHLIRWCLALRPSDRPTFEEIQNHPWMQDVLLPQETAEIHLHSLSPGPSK
# UniProt P54646: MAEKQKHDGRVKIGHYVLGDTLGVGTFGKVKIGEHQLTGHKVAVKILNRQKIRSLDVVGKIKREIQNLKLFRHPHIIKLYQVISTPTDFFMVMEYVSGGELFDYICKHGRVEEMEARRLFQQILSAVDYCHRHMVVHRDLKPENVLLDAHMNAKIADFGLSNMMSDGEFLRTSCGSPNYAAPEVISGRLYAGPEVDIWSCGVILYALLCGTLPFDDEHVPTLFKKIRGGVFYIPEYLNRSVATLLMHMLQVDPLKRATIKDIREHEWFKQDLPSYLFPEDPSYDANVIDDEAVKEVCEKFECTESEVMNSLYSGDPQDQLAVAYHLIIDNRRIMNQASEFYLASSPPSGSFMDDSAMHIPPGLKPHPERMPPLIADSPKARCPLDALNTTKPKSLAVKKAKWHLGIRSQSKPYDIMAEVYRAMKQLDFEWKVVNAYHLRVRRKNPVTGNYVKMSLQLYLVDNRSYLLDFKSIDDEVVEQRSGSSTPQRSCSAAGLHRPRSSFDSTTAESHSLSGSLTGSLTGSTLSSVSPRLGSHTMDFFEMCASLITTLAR
# UniProt Q13131: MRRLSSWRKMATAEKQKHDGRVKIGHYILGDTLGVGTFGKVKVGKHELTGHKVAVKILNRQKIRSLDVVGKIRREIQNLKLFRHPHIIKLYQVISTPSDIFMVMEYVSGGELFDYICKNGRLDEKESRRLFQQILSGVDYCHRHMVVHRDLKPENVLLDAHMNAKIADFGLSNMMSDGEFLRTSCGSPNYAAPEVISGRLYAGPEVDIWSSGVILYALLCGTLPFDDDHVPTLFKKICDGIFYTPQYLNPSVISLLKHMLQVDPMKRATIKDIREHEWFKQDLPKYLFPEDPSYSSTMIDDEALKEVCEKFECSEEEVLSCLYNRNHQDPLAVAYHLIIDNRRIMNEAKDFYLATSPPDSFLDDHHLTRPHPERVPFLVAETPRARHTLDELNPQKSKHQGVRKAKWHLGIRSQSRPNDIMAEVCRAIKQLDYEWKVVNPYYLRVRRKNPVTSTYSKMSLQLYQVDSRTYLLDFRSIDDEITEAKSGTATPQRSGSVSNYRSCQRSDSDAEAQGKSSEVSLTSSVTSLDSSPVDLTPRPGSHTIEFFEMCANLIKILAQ
# UniProt P31749: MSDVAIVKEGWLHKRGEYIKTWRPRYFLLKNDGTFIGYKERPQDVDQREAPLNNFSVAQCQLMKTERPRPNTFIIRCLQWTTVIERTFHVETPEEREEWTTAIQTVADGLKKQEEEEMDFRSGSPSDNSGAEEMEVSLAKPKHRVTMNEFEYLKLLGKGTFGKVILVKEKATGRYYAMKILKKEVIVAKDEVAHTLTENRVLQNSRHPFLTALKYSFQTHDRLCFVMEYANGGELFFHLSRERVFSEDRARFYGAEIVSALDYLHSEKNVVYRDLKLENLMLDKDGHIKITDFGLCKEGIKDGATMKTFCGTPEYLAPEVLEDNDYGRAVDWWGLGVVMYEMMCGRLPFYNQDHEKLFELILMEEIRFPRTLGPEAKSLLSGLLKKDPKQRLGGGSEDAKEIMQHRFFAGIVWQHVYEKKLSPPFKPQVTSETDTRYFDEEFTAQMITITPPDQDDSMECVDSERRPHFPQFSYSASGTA
# UniProt P11362, whole entry, looked up: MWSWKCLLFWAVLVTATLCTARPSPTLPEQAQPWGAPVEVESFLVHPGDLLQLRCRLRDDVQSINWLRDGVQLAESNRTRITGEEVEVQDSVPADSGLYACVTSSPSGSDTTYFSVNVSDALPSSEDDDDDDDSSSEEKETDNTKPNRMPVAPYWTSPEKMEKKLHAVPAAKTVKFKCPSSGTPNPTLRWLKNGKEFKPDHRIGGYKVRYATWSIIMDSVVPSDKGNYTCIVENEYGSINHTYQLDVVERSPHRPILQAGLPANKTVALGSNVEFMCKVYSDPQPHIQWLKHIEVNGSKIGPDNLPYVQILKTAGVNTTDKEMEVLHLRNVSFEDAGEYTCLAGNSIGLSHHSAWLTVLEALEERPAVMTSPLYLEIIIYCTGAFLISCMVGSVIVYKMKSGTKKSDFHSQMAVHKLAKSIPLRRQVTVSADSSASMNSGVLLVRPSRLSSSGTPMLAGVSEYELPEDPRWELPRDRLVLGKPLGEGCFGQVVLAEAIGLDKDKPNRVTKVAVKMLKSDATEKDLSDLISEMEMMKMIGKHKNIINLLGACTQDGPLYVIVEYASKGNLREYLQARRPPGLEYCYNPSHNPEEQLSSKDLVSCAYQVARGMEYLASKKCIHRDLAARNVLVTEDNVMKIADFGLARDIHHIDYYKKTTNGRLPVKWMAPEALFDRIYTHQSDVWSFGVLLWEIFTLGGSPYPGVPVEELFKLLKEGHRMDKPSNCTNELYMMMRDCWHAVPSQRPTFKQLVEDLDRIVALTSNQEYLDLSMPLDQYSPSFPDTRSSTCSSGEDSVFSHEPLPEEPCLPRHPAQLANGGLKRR
# Experiments:
# [1] = target: PIM1 (human) (UniProt P11309); settings: compound 10.0 µM
# [2] = target: PRKAA2 (human) (UniProt P54646); settings: compound 10.0 µM
# [3] = target: PRKAA1 (human) (UniProt Q13131); settings: compound 10.0 µM
# [4] = test system: PRKACA (mouse); settings: compound 10.0 µM; accession and sequence are those of the human protein
# [5] = target: AKT1 (human) (UniProt P31749); settings: compound 10.0 µM
# [6] = target: FGFR1 (human) (UniProt P11362); settings: compound 10.0 µM
smiles,measurement,setting,value
O=C1NC(=O)c2c1c(-c1ccccc1)cc1[nH]c3ccc(O)cc3c21,inhibition,[1],85%
same,inhibition,[2],71%
same,inhibition,[3],66%
same,inhibition,[4],10%
same,inhibition,[5],0%
same,inhibition,[6],0%
